{"source": "PubChem BioAssay AID1259424 (University of Nebraska Medical Center, 2018)", "screen": "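Seek colon cancer survival genes behaving like KSR1, using a six-gene signature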 (primary screen)", "system": "human HCT116 colon cancer cells", "reagents": "siRNA pool against human genes, 50 nM", "read-out": "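Six signature mRNAs by branched-DNA multiplex assay, scaled to two housekeeping genes and non-targeting median, log2; matched to mean KSR1 knockdown profile by Pearson correlation and euclidean distance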", "reading the numbers": "mean correlation with KSR1 profile: higher = expression change more like KSR1 knockdown; mean distance from KSR1 profile: higher = expression change less like KSR1 knockdown", "note": "Shown is an unselected part of about 14,000 reagents. 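Higher correlation or smaller distance means closer resemblance to KSR1 loss; control wells, including KSR1 knockdowns, recur on many plates.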 Not all columns of the deposit are shown. Not stated in the record: the time to read-out."}
{"gene symbol": "STARD3", "mean correlation with KSR1 profile": 0.0151, "mean distance from KSR1 profile": 1.47}
{"gene symbol": "ALDH9A1", "mean correlation with KSR1 profile": 0.0803, "mean distance from KSR1 profile": 1.13}
{"gene symbol": "LLGL2", "mean correlation with KSR1 profile": -0.275, "mean distance from KSR1 profile": 3.72}
{"gene symbol": "COMMD9", "mean correlation with KSR1 profile": 0.61, "mean distance from KSR1 profile": 2.18}
{"gene symbol": "SPRY3", "mean correlation with KSR1 profile": -0.255, "mean distance from KSR1 profile": 2.6}
{"gene symbol": "MGAT4B", "mean correlation with KSR1 profile": 0.202, "mean distance from KSR1 profile": 2.38}

Targets listed so far whose gene name begins with S or s:
{"gene symbol": "STARD3", "mean correlation with KSR1 profile": 0.0151, "mean distance from KSR1 profile": 1.47}
{"gene symbol": "SPRY3", "mean correlation with KSR1 profile": -0.255, "mean distance from KSR1 profile": 2.6}

Continued:
{"gene symbol": "TYROBP", "mean correlation with KSR1 profile": 0.0892, "mean distance from KSR1 profile": 2.21}
{"gene symbol": "SLC15A1", "mean correlation with KSR1 profile": -0.282, "mean distance from KSR1 profile": 2.97}
{"gene symbol": "LAMC3", "mean correlation with KSR1 profile": 0.386, "mean distance from KSR1 profile": 1.34}
{"gene symbol": "PRR11", "mean correlation with KSR1 profile": -0.0522, "mean distance from KSR1 profile": 2.01}
{"gene symbol": "CSPP1", "mean correlation with KSR1 profile": 0.202, "mean distance from KSR1 profile": 1.77}
{"gene symbol": "CDAN1", "mean correlation with KSR1 profile": -0.414, "mean distance from KSR1 profile": 2.4}
